Reference: article PMC11733159

Biological target: T1, RNF128-Flag (in THP-1 cells) (human) (UniProt Q8TEB7)
T1 sequence: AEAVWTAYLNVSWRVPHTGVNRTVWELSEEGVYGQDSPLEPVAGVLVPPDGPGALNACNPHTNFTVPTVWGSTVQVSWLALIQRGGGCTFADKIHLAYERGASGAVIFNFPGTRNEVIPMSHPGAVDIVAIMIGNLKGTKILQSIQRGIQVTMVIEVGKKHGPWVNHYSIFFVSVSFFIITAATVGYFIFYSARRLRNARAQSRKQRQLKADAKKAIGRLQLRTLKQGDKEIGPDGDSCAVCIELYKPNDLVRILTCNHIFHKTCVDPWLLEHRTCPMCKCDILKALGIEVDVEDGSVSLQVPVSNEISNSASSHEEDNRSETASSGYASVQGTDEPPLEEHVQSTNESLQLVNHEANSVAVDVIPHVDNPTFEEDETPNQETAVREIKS
Assay: affinity purification with mass spectrometry; THP-1 cells transfected with empty vector or RNF128-Flag; RIPA lysates immunoprecipitated with anti-FLAG antibody and protein A/G agarose at 4 °C; LC-MS/MS

B1: S100A8 (endogenous, THP-1) (protein, UniProt P05109 1-93)
chain: MLTELEKALNSIIDVYHKYSLIKGNFHAVYRDDLKKLLETECPQYIRKKGADVWFKELDINTDGAVNFQEFLILVIKMGVAAHKKSHEESHKE
  binding: binds

Results are given in words; binding and its absence hold for the method and conditions named. In cells and extracts the contact can be indirect. These calls come from enrichment with a bait or labelling near it, and not all partners need be listed. Sequences can lack the tags named with a protein.
